# Results reported in the supplement of paper PMC10735217.
# Structures can show the parent of a compound that is named as a salt. The list shows a part of the results. Single values are uncertain here, since repeats match poorly.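 Human kidney-derived cells stably carry a construct in which eight TEAD-binding elements drive luciferase, measured by luminescence in a drug-repurposing library screen. A hit is any compound whose signal exceeds the plate mean by more than five robust Z scores.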
# Tested on: HEK293A TEAD-LUC reporter
# Assay: TEAD-luciferase reporter activity (YAP activation), robust Z score vs plate; higher = stronger YAP/TEAD activation
# Settings: 24 h
Structure (SMILES),TEAD-luciferase reporter activity (compound concentration: 200 nM),TEAD-luciferase reporter activity (compound concentration: 2 uM),TEAD-luciferase reporter activity (compound concentration: 10 uM)
CCC(CC)CC1(C(=O)Nc2ccccc2SC(=O)C(C)C)CCCCC1 [dalcetrapib],inactive: -0.696,inactive: -0.046,inactive: 0.533
CC1(C)S[C@@H]2[C@H](NC(=O)/C(=N\OC3CCCC3)c3csc(N)n3)C(=O)N2[C@H]1C(=O)O,inactive: 0.623,inactive: -0.664,inactive: -0.0337
CC(C)CC(N)C(=O)NC(Cc1ccccc1)C(=O)NCC(=O)NCC(=O)NC(Cc1ccc(O)cc1)C(=O)O (centres undefined),inactive: -1.05,inactive: -1.33,inactive: -0.382
CC(C)CCC[C@@H](C)[C@H]1CC[C@H]2[C@@H]3CC=C4C[C@@H](OS(=O)(=O)O)CC[C@]4(C)[C@H]3CC[C@]12C,inactive: 1.06,inactive: 0.0939,inactive: -1.3
C[C@]12CC[C@@H]3c4ccc(OS(=O)(=O)O)cc4CC[C@H]3[C@@H]1CCC2=O [Estrone 3-sulfate],active: 8.21,inactive: 3.02,inactive: 0.334
COc1ccc2c(c1)c(-c1ccccc1)nc(=O)n2CC(F)(F)F,inactive: 0.443,inactive: -1.23,inactive: -1.44
COc1ccc(C2N(c3ccc(OC)cc3)C(=O)C23CCCCC3)cc1 (centres undefined),inactive: -0.882,inactive: 1.04,inactive: 0.322
CN1CCC2(CC1)CCN(C(=O)CCC(=O)c1ccc(F)cc1)C2,inactive: -2.19,inactive: 0.771,inactive: 1.09
O=C(CN1CCC(CN2Cc3ccccc3C2=O)CC1)c1ccc(F)cc1,inactive: -0.399,inactive: -0.577,inactive: -0.599
CCOC(=O)COc1ccc2c(C)c(CCN(CC)CC)c(=O)oc2c1,inactive: -1.8,inactive: -0.545,inactive: 0.758
COc1cc(C(C)C)ccc(CN2CCN(C(c3ccc(F)cc3)c3ccc(F)cc3)CC2)c1=O,inactive: 0.386,inactive: -0.996,inactive: 0.0579
C[N+](C)(C)CC(=O)O,inactive: 0.105,–,inactive: -0.894
C[N+](C)(C)CC(=O)O [betaine],–,inactive: -0.281,–
C=CCOC(=O)N[C@@H](CC(=O)O)C(=O)COc1cc2ccccc2cc1-c1ncc[nH]1,inactive: -0.0228,inactive: 0.773,inactive: -1.12
CC12C[C@H](O)[C@@]3(F)C(CCC4=CC(=O)C=CC43C)[C@@H]1C[C@H]1O[C@@](C)(c3ccccc3)O[C@]12C(=O)CO (some centres undefined),inactive: -0.456,inactive: 1.4,inactive: -1.53
N#Cc1ccc(C(F)(c2ccc(C#N)cc2)n2cncn2)cc1,inactive: -1.17,inactive: 0.956,active: 6.21
Cc1c(NC(=O)c2cc3c(s2)CCCC3)cccc1-c1cn(C)c(=O)c(Nc2ccc(C3C(=O)N(C)CCN3C)cc2)n1 (centres undefined),inactive: -1,inactive: -0.102,active: 6.5
NCC(=O)N1CCC[C@H]1C(=O)NCC(N)=O,inactive: 1.45,inactive: -1.34,inactive: 0.353
O=C(/C=C/c1ccc(O)cc1)C1C(=O)C([C@@H]2O[C@H](CO)[C@@H](O)[C@H](O)[C@H]2O)C(=O)C(O)([C@@H]2O[C@H](CO)[C@@H](O)[C@H](O)[C@H]2O)C1=O (some centres undefined) [Hydroxysafflor yellow A],inactive: 2.03,inactive: -0.7,inactive: 2.13
O=C(NCC1CC1)C1CCN(c2nc3ncccc3o2)CC1,inactive: -0.981,–,inactive: 0.565
N#C/N=C(\NCCCCCCOc1ccc(Cl)cc1)Nc1ccncc1,inactive: -0.792,active: 10.2,active: 5.37
Fc1cc(F)c2c(c1)CC(n1c(CCNCc3ccccc3)c[nH]c1=S)CO2 (centres undefined) [Zamicastat],inactive: -0.821,inactive: 0.123,inactive: 0.576
CC(C)=CCC[C@@](C)(O)[C@H]1CC[C@]2(C)[C@@H]1[C@H](O)C[C@@H]1[C@@]3(C)CC[C@H](O)C(C)(C)[C@@H]3[C@@H](O)C[C@]12C [Protopanaxatriol],inactive: 1.11,inactive: -1.89,inactive: 1.11
C[C@@H](O)[C@H]1C(=O)N2C(C(=O)O)=C(SC3CN(C4=NCCS4)C3)[C@H](C)[C@H]12,inactive: 0.165,inactive: 0.378,inactive: 2.46
CC(C)C(CS)C(=O)N[C@@H](Cc1ccc(-n2cccn2)cc1)C(=O)O (some centres undefined),inactive: 1.95,inactive: -0.982,inactive: -0.144
NC(=O)c1cc(-c2cc(F)cc(Cl)c2)n(-c2ccc(F)c(Cl)c2)n1,inactive: -0.367,inactive: -1.35,inactive: -0.899
CC(C)=CCOc1cc(NC(=S)c2ccsc2C)ccc1Cl,inactive: 1.17,inactive: -0.703,inactive: 0.353
CCCCC1(CCCC)CS(=O)(=O)c2ccc(N(C)C)cc2[C@@H](c2ccc(OCc3ccc(C[N+]45CCN(CC4)CC5)cc3)cc2)[C@H]1O [Lopixibat chloride],inactive: -0.689,inactive: 2.53,inactive: 0.58

Structure (SMILES),TEAD-luciferase reporter activity (compound concentration: 200 nM),TEAD-luciferase reporter activity (compound concentration: 2 uM),TEAD-luciferase reporter activity (compound concentration: 10 uM)
O=C(CCCN1CCC(C(O)c2ccc(F)cc2)CC1)c1ccc(F)cc1 (centres undefined) [dihydrolenperone],inactive: 1.57,inactive: -0.0156,inactive: 0.743
COC[C@H](C)Oc1cc(Oc2cnc(C(=O)N3CCC3)cn2)cc(C(=O)O)c1,inactive: -0.686,inactive: 0.308,inactive: -0.311
CC(=O)N1C[C@H](O)C[C@H]1C(=O)O,inactive: 4.02,inactive: 2.19,inactive: -1.66
"Cc1ccc(C(=O)C(C)CN2CCCCC2)cc1 (centres undefined) [tolperisone gel, Gedeon Richter]",inactive: -1.23,–,inactive: -0.594
N=C(N)c1ccc(/C=C/c2ccc(C(=N)N)cc2)cc1,inactive: -0.508,inactive: 2.11,inactive: -0.89
Cc1cc(OP(=O)(O)O)c2ccccc2c1OP(=O)(O)O [Menadiol sodium diphosphate],inactive: 0.112,inactive: 1.34,inactive: 0.625
CC#C[C@@H](CC(=O)O)c1ccc(OCc2cccc(-c3ccc(C(F)(F)F)cc3)c2)cc1,inactive: -2.18,inactive: -0.444,inactive: 0.922
FC(F)(c1ccc2ncccc2c1)c1nnc2ccc(-c3ccncc3)nn12,inactive: -0.294,inactive: -0.853,inactive: -0.849
Cc1cccc(C)c1NC(=O)CN1CCN(CCCC(c2ccc(F)cc2)c2ccc(F)cc2)CC1 [lidoflazine],inactive: -0.665,inactive: 0.87,inactive: -1.3
CCCc1cc(C(=O)O)ccc1OC(C(=O)NS(=O)(=O)c1ccc(C(C)C)cc1)c1ccc2c(c1)OCO2 (centres undefined),inactive: 1.31,inactive: -0.465,inactive: -0.678
COC(=O)CCNC(=O)[C@H](O)C(C)(C)COP(=O)(N[C@@H](C)C(=O)OC)Oc1ccccc1 (some centres undefined),inactive: -1.37,inactive: 1.82,inactive: -0.163
CCCCCCCCCCCCCCC[C@@H](O)[C@H](C)N,inactive: 0.39,inactive: -0.765,inactive: -1.26
O=C1CC(c2c[nH]c3ccc(F)cc23)C(=O)N1 (centres undefined),inactive: 0.702,inactive: -1.6,inactive: 1.46
CO/N=C(\C(=O)N[C@@H]1C(=O)N2C(C(=O)O)=C(CSc3cnns3)CS[C@H]12)c1csc(N)n1 [Cefuzonam],inactive: 0.818,inactive: 0.0925,inactive: 1.95
CC(Cl)C(Cl)(Cl)C(O)O (centres undefined),inactive: -1.26,inactive: -2.29,inactive: 1.67
C[N+](C)(CC(=O)Nc1ccccc1)CC(=O)Nc1ccccc1,inactive: -2.31,inactive: 1.03,inactive: 0.309
CCN(CC)CCNc1ccc2ncn3c4ccc(O)cc4c(=O)c1c23 [Imidazoacridi],inactive: -0.219,inactive: -0.294,inactive: -1.5
COc1ccc(C(CC(N)=O)N2C(=O)c3ccccc3C2=O)cc1OC1CCCC1 (centres undefined),inactive: -1.67,inactive: -0.934,inactive: -0.358
CC(C)CCCC(C)N (centres undefined),–,inactive: -1.3,–
CC(C)CCCC(C)N (centres undefined) [Octodrine],inactive: 0.281,–,inactive: -1.18
CO[C@@H]1CC(C)(C)C[C@H]2C3=CCC4[C@@]5(C)CC[C@H](O)[C@](C)(CO)C5CC[C@@]4(C)C3(C)CC[C@@]12C (some centres undefined),inactive: -1.56,inactive: -0.519,inactive: -0.402
CC(C)NC(=N)NC(=N)Nc1ccc(Cl)cc1 [Proguanil],inactive: -1.1,–,inactive: -1.36
CC(C)NC(=N)NC(=N)Nc1ccc(Cl)cc1 [Proguanil hydrochloride],–,inactive: -1.48,–
COc1cc(N)c(Cl)cc1C(=O)N[C@H]1CCN(CCC(=O)Nc2cccc3ncccc23)C[C@H]1OC,inactive: -2.04,inactive: -2.28,inactive: 0.792
C[C@@H]([C@H](C)O)[C@H](N)C(=O)O,inactive: 0.25,inactive: -0.736,inactive: -0.252
O=C(O)COc1nn(Cc2ccccc2)c2ccccc12 [bendazac lysinate],inactive: -1.15,inactive: 1.68,inactive: 1.09
CCOC(=O)[C@H](CCc1ccccc1)N[C@@H](C)C(=O)N1[C@H](C(=O)O)C[C@H]2CCCC[C@@H]21 [Trandolapril],inactive: -0.782,inactive: -1.41,inactive: 0.664

# Complete entries as entered above. Order of values: TEAD-luciferase reporter activity (compound concentration: 200 nM)	TEAD-luciferase reporter activity (compound concentration: 2 uM)	TEAD-luciferase reporter activity (compound concentration: 10 uM)
# O=C(/C=C/c1ccc(O)cc1)C1C(=O)C([C@@H]2O[C@H](CO)[C@@H](O)[C@H](O)[C@H]2O)C(=O)C(O)([C@@H]2O[C@H](CO)[C@@H](O)[C@H](O)[C@H]2O)C1=O (some centres undefined) [Hydroxysafflor yellow A] as listed: inactive: 2.03	inactive: -0.7	inactive: 2.13
# CN1CCC2(CC1)CCN(C(=O)CCC(=O)c1ccc(F)cc1)C2 as listed: inactive: -2.19	inactive: 0.771	inactive: 1.09
# NC(=O)c1cc(-c2cc(F)cc(Cl)c2)n(-c2ccc(F)c(Cl)c2)n1 as listed: inactive: -0.367	inactive: -1.35	inactive: -0.899
# COc1cc(N)c(Cl)cc1C(=O)N[C@H]1CCN(CCC(=O)Nc2cccc3ncccc23)C[C@H]1OC as listed: inactive: -2.04	inactive: -2.28	inactive: 0.792
